Measurements published in PMC8789930.

By UniProt entry, the sequences of proteins in these tests, tags left out.
UniProt P13010: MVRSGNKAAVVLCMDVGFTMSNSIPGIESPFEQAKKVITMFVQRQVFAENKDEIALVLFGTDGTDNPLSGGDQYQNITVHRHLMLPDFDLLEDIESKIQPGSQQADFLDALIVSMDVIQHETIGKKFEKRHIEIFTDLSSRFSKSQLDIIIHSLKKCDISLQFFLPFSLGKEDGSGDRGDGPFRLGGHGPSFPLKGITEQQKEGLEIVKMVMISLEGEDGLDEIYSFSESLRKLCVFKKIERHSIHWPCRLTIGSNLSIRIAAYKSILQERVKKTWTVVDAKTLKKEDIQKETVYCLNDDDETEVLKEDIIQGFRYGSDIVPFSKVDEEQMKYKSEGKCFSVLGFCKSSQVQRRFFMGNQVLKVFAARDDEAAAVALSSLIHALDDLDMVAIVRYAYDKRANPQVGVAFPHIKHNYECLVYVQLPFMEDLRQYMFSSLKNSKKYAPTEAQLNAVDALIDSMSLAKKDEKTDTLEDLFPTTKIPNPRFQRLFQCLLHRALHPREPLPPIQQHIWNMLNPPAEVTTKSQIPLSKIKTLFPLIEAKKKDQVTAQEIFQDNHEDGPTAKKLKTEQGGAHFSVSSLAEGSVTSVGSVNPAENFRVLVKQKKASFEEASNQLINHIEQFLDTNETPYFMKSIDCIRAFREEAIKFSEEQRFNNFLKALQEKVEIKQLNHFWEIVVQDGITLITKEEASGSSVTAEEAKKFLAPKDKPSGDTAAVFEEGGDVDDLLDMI
UniProt Q14258: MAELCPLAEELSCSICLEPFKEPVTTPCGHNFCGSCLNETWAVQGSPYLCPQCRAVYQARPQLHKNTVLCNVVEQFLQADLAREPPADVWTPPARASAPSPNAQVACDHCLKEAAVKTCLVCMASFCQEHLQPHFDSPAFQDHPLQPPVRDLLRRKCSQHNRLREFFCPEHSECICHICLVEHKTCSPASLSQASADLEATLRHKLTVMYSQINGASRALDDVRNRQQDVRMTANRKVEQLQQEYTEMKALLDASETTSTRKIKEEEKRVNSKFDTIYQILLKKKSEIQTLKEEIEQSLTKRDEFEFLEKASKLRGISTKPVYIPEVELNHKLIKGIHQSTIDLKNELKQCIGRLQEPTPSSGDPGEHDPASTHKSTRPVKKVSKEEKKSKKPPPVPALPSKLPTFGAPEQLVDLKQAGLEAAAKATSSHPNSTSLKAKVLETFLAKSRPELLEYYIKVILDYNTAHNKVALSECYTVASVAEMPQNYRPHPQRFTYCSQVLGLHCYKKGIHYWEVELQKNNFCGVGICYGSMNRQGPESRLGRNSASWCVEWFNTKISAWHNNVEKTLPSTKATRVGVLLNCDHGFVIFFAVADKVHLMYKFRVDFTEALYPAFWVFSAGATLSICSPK

Target: T1, HA-USP44 (UniProt Q9H0E7)
T1 sequence: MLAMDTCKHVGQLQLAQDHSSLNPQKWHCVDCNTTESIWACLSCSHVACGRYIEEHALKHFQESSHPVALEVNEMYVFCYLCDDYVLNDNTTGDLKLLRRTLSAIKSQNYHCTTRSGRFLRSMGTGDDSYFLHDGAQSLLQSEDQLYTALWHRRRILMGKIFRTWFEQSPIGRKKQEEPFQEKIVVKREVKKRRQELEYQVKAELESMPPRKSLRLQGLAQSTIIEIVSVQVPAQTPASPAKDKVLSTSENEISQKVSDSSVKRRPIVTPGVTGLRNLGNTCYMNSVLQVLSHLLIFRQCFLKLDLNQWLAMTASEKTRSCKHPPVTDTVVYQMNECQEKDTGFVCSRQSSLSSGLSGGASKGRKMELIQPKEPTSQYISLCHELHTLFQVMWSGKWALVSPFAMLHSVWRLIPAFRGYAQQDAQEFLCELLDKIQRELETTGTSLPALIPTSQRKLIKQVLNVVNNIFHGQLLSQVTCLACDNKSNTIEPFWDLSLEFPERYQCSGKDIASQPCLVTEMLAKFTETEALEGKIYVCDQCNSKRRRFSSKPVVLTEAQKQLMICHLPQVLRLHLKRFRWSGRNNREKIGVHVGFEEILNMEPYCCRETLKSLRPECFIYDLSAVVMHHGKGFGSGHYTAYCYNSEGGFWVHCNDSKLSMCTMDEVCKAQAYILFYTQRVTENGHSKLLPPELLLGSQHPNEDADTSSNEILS
Test: affinity purification with mass spectrometry; anti-HA immunoprecipitate from SUNE1 cells stably overexpressing HA-USP44; SDS-PAGE, Coomassie blue, mass spectrometry

Row | Substance | binding
1 | Ku80 (endogenous) (from UniProt P13010 1-732) | binds
2 | TRIM25 (endogenous) (from UniProt Q14258 1-630) | binds

These are yes or no findings as the source states them, for the method shown. In cells and extracts the contact can be indirect. These calls come from enrichment with a bait or labelling near it, and not all partners need be listed. Tags and fused reporters may be left off the sequences shown.
